Positions count from the first letter of the chain named. Protein sequences can lack the tags named with them. For at least one entry, the source does not settle the construct or the ends of the probe. For part of these data: A negative result means that nothing was seen under these conditions.
Key:
Eco57I D78K T862N = biological target: T1, Eco57I D78K T862N (UniProt P25239); experiment: activity assay; conditions: methylation of top strand, B+ buffer, 30 uM AdoMet, 37 C 3 h, purified recombinant protein, protein details: untagged, expressed from pET21b
T1 sequence (looked up, limits assumed): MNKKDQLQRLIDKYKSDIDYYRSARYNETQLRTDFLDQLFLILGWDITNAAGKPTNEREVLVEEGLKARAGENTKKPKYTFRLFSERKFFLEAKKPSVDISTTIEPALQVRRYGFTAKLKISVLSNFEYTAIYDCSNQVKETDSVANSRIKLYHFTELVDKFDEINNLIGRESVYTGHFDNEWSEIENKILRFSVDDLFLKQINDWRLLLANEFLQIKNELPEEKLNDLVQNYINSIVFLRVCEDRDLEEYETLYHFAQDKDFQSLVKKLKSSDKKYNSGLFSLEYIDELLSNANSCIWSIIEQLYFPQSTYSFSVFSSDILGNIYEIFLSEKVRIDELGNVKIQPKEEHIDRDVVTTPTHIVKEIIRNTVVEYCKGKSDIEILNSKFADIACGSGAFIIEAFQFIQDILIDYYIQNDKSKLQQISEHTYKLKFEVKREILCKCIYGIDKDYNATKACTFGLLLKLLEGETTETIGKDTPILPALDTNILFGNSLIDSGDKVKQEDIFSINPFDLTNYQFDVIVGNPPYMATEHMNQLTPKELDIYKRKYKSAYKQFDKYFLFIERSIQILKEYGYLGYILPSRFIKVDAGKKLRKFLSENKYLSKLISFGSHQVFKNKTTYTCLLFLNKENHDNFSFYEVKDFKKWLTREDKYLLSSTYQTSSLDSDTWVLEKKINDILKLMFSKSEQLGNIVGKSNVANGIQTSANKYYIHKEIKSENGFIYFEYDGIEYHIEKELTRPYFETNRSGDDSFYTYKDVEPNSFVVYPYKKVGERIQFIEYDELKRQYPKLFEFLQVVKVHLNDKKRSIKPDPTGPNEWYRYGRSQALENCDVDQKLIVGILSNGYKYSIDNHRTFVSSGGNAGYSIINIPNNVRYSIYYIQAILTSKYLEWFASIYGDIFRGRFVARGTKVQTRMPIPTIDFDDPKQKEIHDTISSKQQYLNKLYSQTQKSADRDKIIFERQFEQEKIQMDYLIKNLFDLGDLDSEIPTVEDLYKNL

Eco57I T862N [1] = biological target: T2, Eco57I T862N (UniProt P25239); experiment: activity assay; conditions: methylation of top strand, B+ buffer, 30 uM AdoMet, 37 C 3 h, purified recombinant protein, protein details: untagged, expressed from pET21b
T2 sequence (looked up, limits assumed): T1 sequence (looked up, limits assumed) with K78D

[2] = biological target: T3, Eco57I restriction endonuclease (wild type) (UniProt P25239); experiment: activity assay; conditions: methylation of top strand; bottom strand 406; B+ buffer, 30 uM AdoMet, 37 C 3 h; purified native protein; protein details: MBI Fermentas
T3 sequence (looked up, limits assumed): T1 sequence (looked up, limits assumed) with K78D, N862T

Eco57I D78K = biological target: T4, Eco57I D78K (UniProt P25239); experiment: activity in cells; conditions: protein in cells, protein details: expressed from pET21b, only the site is given
T4 sequence (looked up, limits assumed): T1 sequence (looked up, limits assumed) with N862T

Eco57I T862N [3] = biological target: T2, Eco57I T862N; experiment: enzyme reaction in vitro; conditions: Mg2+, purified recombinant protein, protein details: untagged, expressed from pET21b, label: 33P, only the site is given

## AGTTCTGAAGCATCGTTCACCGGTTACAAC / TGGTTGTAACCGGTAACGGATGCTTCAGAACTTCTC [duplex #2 Eco57I site]
Eco57I D78K T862N; bottom strand 278
  activity on this sequence (3H radioactivity (units not stated)): 10200
Eco57I T862N [1]; bottom strand 198
  activity on this sequence (3H radioactivity (units not stated)): 17900
[2]
  activity on this sequence (3H radioactivity (units not stated)): 21800

## AGTTCTGGAGCATCGTTCACCGGTTACAAC / TGGTTGTAACCGGTAACGGATGCTCCAGAACTTCTC [duplex #1 GsuI site]
Eco57I D78K T862N; bottom strand 920, variant of duplex #2 Eco57I site
  activity on this sequence (3H radioactivity (units not stated)): 32200
Eco57I T862N [1]; bottom strand 980, variant of duplex #2 Eco57I site
  activity on this sequence (3H radioactivity (units not stated)): 30600

## CTGAAG (double strand) [Eco57I recognition site in plasmid]
Eco57I D78K; plasmid protected from Eco57I cleavage by methylation
  activity on this sequence: active

## CTGGAG (double strand) [GsuI recognition site in plasmid]
Eco57I D78K; plasmid remains sensitive to GsuI, site not methylated
  activity on this sequence: not active

## TAATAGACTGGATGGAGGCGCTGGAGCCGGTGAGCGTGGGTC (double strand) [pACYC177 GsuI site region (position 454)]
Eco57I T862N [3]; cleaves 16/14 nt from CTGGAG
  activity on this sequence: active

## TCCCTTTTTTGCGGCATTTTGCTGAAGATCAGTTGGGTGCACGA (double strand) [pACYC177 Eco57I site region (position 3798)]
Eco57I T862N [3]; cleaves 16 or 17 / 14 or 15 nt from CTGAAG
  activity on this sequence: active
